Positions count from the first letter of the chain named.
B1: 55Y, 72A (protein, listed as Rattus norvegicus)
chain: AFDGTWKVDRNENYEKFMEKMGINVVKRKLGAHDNLKLTITQEGNKFTVKESSNYRNIDVVFELGVDFAYSAADGTELTGTWTMEGNKLVGKFKRVDNGKELIAVREISGNELIQTYTYEGVEAKRIFKKE
modifications: PEPTIDE (1)...(131) wild-type rat intestinal fatty acid binding protein
B2: 14L 72G 117V (protein, listed as Rattus norvegicus)
chain: B1 chain with Y14L, Y55F, A72G, Y117V
modifications: PEPTIDE (1)...(131) wild-type rat intestinal fatty acid binding protein
B3: 21V, 72A (protein, listed as Rattus norvegicus)
chain: B1 chain with M21V, Y55F
modifications: PEPTIDE (1)...(131) wild-type rat intestinal fatty acid binding protein
B4: 38Q 106W 117A 72A (protein, listed as Rattus norvegicus)
chain: B1 chain with L38Q, Y55F, R106W, Y117A
modifications: PEPTIDE (1)...(131) wild-type rat intestinal fatty acid binding protein
B5: 82F, 72A (protein, listed as Rattus norvegicus)
chain: B1 chain with Y55F, W82F
modifications: PEPTIDE (1)...(131) wild-type rat intestinal fatty acid binding protein
B6: 78A, 72A (protein, listed as Rattus norvegicus)
chain: B1 chain with Y55F, L78A
modifications: PEPTIDE (1)...(131) wild-type rat intestinal fatty acid binding protein
B7: 55I, 72A (protein, listed as Rattus norvegicus)
chain: B1 chain with Y55I
modifications: PEPTIDE (1)...(131) wild-type rat intestinal fatty acid binding protein
B8: 78I, 72A (protein, listed as Rattus norvegicus)
chain: B1 chain with Y55F, L78I
modifications: PEPTIDE (1)...(131) wild-type rat intestinal fatty acid binding protein
B9: 78V, 72A (protein, listed as Rattus norvegicus)
chain: B1 chain with Y55F, L78V
modifications: PEPTIDE (1)...(131) wild-type rat intestinal fatty acid binding protein
B10: 14I 72G 117V (protein, listed as Rattus norvegicus)
chain: B1 chain with Y14I, Y55F, A72G, Y117V
modifications: PEPTIDE (1)...(131) wild-type rat intestinal fatty acid binding protein
B11: 11V, 72A (protein, listed as Rattus norvegicus)
chain: B1 chain with N11V, Y55F
modifications: PEPTIDE (1)...(131) wild-type rat intestinal fatty acid binding protein
B12: 21I, 72A (protein, listed as Rattus norvegicus)
chain: B1 chain with M21I, Y55F
modifications: PEPTIDE (1)...(131) wild-type rat intestinal fatty acid binding protein
B13: 38I 72G (protein, listed as Rattus norvegicus)
chain: B1 chain with L38I, Y55F, A72G
modifications: PEPTIDE (1)...(131) wild-type rat intestinal fatty acid binding protein
B14: 23L, 72A (protein, listed as Rattus norvegicus)
chain: B1 chain with I23L, Y55F
modifications: PEPTIDE (1)...(131) wild-type rat intestinal fatty acid binding protein
B15: 106M, 72A (protein, listed as Rattus norvegicus)
chain: B1 chain with Y55F, R106M
modifications: PEPTIDE (1)...(131) wild-type rat intestinal fatty acid binding protein
B16: 14L 18S 31L 73V 117A 72A (protein, listed as Rattus norvegicus)
chain: B1 chain with Y14L, M18S, G31L, Y55F, A73V, Y117A
modifications: PEPTIDE (1)...(131) wild-type rat intestinal fatty acid binding protein
B17: 104Y, 72A (protein, listed as Rattus norvegicus)
chain: B1 chain with Y55F, A104Y
modifications: PEPTIDE (1)...(131) wild-type rat intestinal fatty acid binding protein
B18: 11W, 72A (protein, listed as Rattus norvegicus)
chain: B1 chain with N11W, Y55F
modifications: PEPTIDE (1)...(131) wild-type rat intestinal fatty acid binding protein
B19: 78Y, 72A (protein, listed as Rattus norvegicus)
chain: B1 chain with Y55F, L78Y
modifications: PEPTIDE (1)...(131) wild-type rat intestinal fatty acid binding protein
B20: 73N 72A 74F (protein, listed as Rattus norvegicus)
chain: B1 chain with Y55F, A73N, D74F
modifications: PEPTIDE (1)...(131) wild-type rat intestinal fatty acid binding protein
B21: 18I 31L 73L 72A (protein, listed as Rattus norvegicus)
chain: B1 chain with M18I, G31L, Y55F, A73L
modifications: PEPTIDE (1)...(131) wild-type rat intestinal fatty acid binding protein
B22: 49D, 72A (protein, listed as Rattus norvegicus)
chain: B1 chain with V49D, Y55F
modifications: PEPTIDE (1)...(131) wild-type rat intestinal fatty acid binding protein
B23: 106D, 72A (protein, listed as Rattus norvegicus)
chain: B1 chain with Y55F, R106D
modifications: PEPTIDE (1)...(131) wild-type rat intestinal fatty acid binding protein
B24: 14L 72G 117I (protein, listed as Rattus norvegicus)
chain: B1 chain with Y14L, Y55F, A72G, Y117I
modifications: PEPTIDE (1)...(131) wild-type rat intestinal fatty acid binding protein

experiment: Baseline fluorescence ratio Ro of probe in absence of analyte; conditions: baseline fluorescence ratio of probe

Molecule | Ro
B1 | 0.124
B2 | 0.280
B3 | 0.269
B4 | 0.301
B5 | 0.139
B6 | 0.239
B7 | 0.181
B8 | 0.176
B9 | 0.255
B10 | 0.312
B11 | 0.363
B12 | 0.241
B13 | 0.290
B14 | 0.229
B15 | 0.231
B16 | 0.486
B17 | 0.878
B18 | 0.262
B19 | 0.314

same assay, conditions: baseline fluorescence ratio of probe, no fatty acid

Molecule | Ro
B20 | 0.448
B1 | 0.124
B2 | 0.280
B5 | 0.139
B6 | 0.239
B10 | 0.312
B21 | 0.380
B12 | 0.241
B22 | 0.231
B23 | 0.240
B15 | 0.231
B16 | 0.486
B24 | 0.246
B17 | 0.878
B18 | 0.262

From patent publication US20060257938A1, “Method of screening for drugs that block ligand binding to a lipid binding protein” (priority 2005, published 2006)
